For 6 molecules, binding results are on record in PMC2386257.

In assay [1] the target is T1, ribosomal protein L32 (Treponema pallidum) (UniProt B2S446).
T1 sequence: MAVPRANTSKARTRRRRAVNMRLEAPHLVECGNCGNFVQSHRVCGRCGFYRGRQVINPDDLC
In words: two-hybrid; systematic array-based yeast two-hybrid screen of the T. pallidum proteome; baits in pAS1-loxP or pLP-GBKT7Amp against arrayed preys in pLP-GADT7.

For assay [2], the target named is T2, peptide deformylase (Treponema pallidum) (UniProt B2S3Z6).
T2 sequence: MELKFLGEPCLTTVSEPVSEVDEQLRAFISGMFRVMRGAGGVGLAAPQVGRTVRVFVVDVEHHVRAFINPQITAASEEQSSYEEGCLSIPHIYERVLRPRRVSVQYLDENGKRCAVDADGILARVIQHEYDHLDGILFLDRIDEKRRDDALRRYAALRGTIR
Described as above.

Assay [3] deals with T3, GyrB (Treponema pallidum) (UniProt O08399).
T3 sequence: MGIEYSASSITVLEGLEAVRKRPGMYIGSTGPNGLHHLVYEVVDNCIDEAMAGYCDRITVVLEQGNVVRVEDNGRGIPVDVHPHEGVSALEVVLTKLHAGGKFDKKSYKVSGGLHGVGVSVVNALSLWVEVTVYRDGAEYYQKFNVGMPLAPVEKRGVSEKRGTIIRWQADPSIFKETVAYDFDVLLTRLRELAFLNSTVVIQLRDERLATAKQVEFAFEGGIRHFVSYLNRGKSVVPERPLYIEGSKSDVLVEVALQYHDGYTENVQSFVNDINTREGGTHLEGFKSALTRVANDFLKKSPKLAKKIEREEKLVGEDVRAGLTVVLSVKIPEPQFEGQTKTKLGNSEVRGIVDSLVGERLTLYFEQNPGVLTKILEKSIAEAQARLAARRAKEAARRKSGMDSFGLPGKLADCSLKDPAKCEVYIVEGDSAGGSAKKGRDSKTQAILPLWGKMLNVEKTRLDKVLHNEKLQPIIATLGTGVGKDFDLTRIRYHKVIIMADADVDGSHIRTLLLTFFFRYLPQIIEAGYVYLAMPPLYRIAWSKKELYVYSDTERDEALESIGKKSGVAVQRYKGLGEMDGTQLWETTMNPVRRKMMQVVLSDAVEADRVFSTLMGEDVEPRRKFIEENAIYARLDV
The assay is described as above.

Assay [4] deals with T4, Myc-tagged GyrB protein (Treponema pallidum) (UniProt O08399).
T4 sequence: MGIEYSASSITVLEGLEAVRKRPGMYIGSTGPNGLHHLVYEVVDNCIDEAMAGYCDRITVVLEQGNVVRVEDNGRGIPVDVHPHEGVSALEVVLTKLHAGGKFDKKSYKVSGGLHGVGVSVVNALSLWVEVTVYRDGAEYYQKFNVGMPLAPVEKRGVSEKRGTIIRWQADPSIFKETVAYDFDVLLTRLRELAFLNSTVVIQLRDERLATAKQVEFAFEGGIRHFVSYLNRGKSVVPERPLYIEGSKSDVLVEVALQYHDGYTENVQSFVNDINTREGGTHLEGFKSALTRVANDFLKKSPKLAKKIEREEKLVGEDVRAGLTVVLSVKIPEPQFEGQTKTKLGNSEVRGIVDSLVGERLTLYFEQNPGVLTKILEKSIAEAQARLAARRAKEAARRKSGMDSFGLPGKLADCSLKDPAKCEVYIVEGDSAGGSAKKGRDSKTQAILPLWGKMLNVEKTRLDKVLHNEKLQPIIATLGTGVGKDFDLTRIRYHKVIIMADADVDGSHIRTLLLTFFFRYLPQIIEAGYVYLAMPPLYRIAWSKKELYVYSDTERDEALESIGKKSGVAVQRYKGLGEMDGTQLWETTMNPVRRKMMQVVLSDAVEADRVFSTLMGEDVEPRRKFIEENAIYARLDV
In words: co-IP; E. coli BL21/DE3 co-transformed with Myc-tag (pBad24Myc_loxP) and HA-tag (pBad33HA_loxP) fusions, induced with 0.2% L-Ara for 3 h at 37°C; precipitated with anti-Myc, blots probed with anti-HA and anti-Myc; empty Myc-tag vector as control.

In assay [5] the target is T5, TP0701 (Treponema pallidum) (UniProt O83699).
T5 sequence: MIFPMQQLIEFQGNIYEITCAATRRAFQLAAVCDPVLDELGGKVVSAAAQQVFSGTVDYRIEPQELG
In words: two-hybrid; systematic array-based yeast two-hybrid screen of the T. pallidum proteome; baits in pAS1-loxP or pLP-GBKT7Amp against arrayed preys in pLP-GADT7.

Assay [6] has as its target T6, ribulose-3-P-epimerase (Treponema pallidum) (UniProt O66107).
T6 sequence: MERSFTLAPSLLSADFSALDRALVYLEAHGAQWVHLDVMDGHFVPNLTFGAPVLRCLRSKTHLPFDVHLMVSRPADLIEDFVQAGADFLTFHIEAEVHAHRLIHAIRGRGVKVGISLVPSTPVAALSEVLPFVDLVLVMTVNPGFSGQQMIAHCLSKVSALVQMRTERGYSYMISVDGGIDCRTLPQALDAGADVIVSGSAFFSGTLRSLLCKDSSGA
Described as above.

Assay [7] addresses T7, DNA replication initiation protein DnaA (Treponema pallidum) (UniProt B2S1V1).
T7 sequence: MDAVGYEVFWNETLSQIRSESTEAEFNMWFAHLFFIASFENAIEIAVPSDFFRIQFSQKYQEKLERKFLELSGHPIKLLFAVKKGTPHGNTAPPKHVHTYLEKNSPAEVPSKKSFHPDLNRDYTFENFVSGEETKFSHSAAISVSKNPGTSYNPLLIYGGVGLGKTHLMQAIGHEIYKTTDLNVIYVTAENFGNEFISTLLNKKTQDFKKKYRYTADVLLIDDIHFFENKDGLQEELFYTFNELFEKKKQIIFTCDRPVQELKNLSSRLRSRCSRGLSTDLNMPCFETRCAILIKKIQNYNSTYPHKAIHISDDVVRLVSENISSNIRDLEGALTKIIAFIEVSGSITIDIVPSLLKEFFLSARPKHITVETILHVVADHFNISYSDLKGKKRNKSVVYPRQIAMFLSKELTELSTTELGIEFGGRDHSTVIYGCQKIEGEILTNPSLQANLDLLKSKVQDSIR
The assay is described as above.

Assay [8] deals with T8, SbcD (Treponema pallidum) (UniProt O83634).
T8 sequence: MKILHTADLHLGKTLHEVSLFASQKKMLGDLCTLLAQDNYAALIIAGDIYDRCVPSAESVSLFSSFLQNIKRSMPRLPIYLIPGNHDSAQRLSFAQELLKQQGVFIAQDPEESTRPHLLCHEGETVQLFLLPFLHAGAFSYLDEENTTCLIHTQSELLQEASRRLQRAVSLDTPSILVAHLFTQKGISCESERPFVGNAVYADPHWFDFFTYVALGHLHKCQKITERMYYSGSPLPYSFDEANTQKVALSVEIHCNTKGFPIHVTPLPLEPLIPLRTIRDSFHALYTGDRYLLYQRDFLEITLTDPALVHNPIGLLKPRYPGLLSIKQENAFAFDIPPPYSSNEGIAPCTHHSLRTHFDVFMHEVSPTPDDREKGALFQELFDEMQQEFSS
The description is as above.

Results are given in words; binding and its absence hold for the method and conditions named. For some assays here: Binding seen in cells or lysates may run through a third protein. Some entries that bind do so weakly or less than the wild type. For some assays here: Tags and fused reporters may be left off the sequences shown.

B1: TP0650 (protein, UniProt O83656 1-160)
chain: MSEVNKVSVSCEGFCPPPWIGQVAPFVCAVLDSQAISHWDLSIVCCTDAFIRRLNYDYRGIDSPTDVLSFENDGEYCDDAGTRFFLAGDIIISLESVRENSERFHVAAHEEFKRVLIHGILHLSGMDHQDNSPGQEMLRLQERILAQHCRVLSSGIPWES
With B1, the binding result in assay [1] and in assay [2] was “binds” in each case.

B2: TP0004 (protein, UniProt O83050 1-145)
chain: MNNGVNKLSDLLVLTTEYIQASYETEAFDAHREWVCIVGNPVALHSTLVDIRNGKVVVKVTHPGWAQYLLLKKDEIVHALRRRYPSLGVTGMSTYVDSTSRTPSAKKDMQGLSVSEKQTRPVPELAEVFEQLRTLFQVKTEEPSH
For the molecule B2, the binding entry in assay [3] was “binds”.

B3: HA-tagged protein TP0004 (protein, UniProt O83050 1-145)
chain: MNNGVNKLSDLLVLTTEYIQASYETEAFDAHREWVCIVGNPVALHSTLVDIRNGKVVVKVTHPGWAQYLLLKKDEIVHALRRRYPSLGVTGMSTYVDSTSRTPSAKKDMQGLSVSEKQTRPVPELAEVFEQLRTLFQVKTEEPSH
With B3, the binding result in assay [4] was “binds”.

B4: TP0772 (protein, UniProt O83751 1-274)
chain: MCATLRPMETLGFCMLSPSTLPLRKWGIRLCRAGYRALGALLGTGVLVCCASSTNMTVSNDYPPKELGVLNAYTVDRLRTAISPRDFTFVFDPPIDTVLMQFKFLLDGITLYLERKDRTALREAIEKYLGEYEAQTLTREKSSERAYFGTTTPLMTWGILGSAHNATPTMRFEYQFITDDRPYFIIANRTIPGANGYNCPAVRIALSPAQCSQVMQYLDQGNLDALLEEMAQSFETFDTQQDPKKTPETDKNAAYKGKEKKGKKEERGPRSIMK
On to B4, for which, in assay [5], the binding entry is recorded as “binds”.

B5: TP0320 (protein, UniProt O83340 1-51)
chain: MPPVPARGRPSSSSDFCLYGMAVVNGFCVQDIPYGSRVVLPGRMRSSSAGA
As for B5, in assay [6], the binding result is on record as “binds”.

B6: TP0183 (protein, UniProt O83213 1-281)
chain: MKKGVRSSRLLILFVLFAHAVHAAPRVGVYRLEVSGVPAHTETTINDALFSFIRELRGYHVVDCREQAVPHRFPEKGNLDYIFCGAMDLTPEGIRLAVALKGKDHNATRLLSKTYETAARILLDSRHLVRDVFDRSVPLTGNQTETSSMRHTRAGEESVSSLDALAGSWHSTEEGERIVIVSEGRGIAVLRSGLSVPLKLKISDGVLVVSQKGAVNARQFSHFPPEIAQKLAQEARPLQWRFPKISGNNRLSGVRTAPVVRGAGHTASVEYEEVPEEWVRN
In the case of B6, the binding result in assay [7] and in assay [8] was “binds” in each case.
